Counter-ions that a name gives are not always drawn. ± gives the standard deviation of the averaged measurements. Some of the results follow. This data set is noisy: repeats of one test often differ as much as different tests do.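 Clinical A. baumannii isolates resistant to the partner antibiotic were chosen, and the screen identifies drugs restoring that antibiotic's activity. Subtracting the initial incubation reading corrects for coloured-compound background.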
The compounds below were run on Acinetobacter baumannii WP-487 (assay: percent growth inhibition of drug + antibiotic vs DMSO control; higher = more growth inhibition). Settings: antibiotic (0.125x MIC): colistin; 7 µM.
Description: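 Prestwick drugs tested at 20 uM and 7 uM with an antibiotic at 0.125x MIC (16 mg/L when MIC >128 mg/L) in cation-adjusted Mueller-Hinton broth, 384-well plates, duplicate runs on different days. Percent growth inhibition was computed from OD600 (24 h minus 0 h) relative to DMSO-only wells. Drug + 0.1% DMSO (no antibiotic) wells are also given. Only hits (max corrected inhibition > mean + 3SD) are listed. A. baumannii: NCTC-13301 was used for MEM/CIP/GEN/TGC and WP-487 for colistin. Duplicates with colistin are strongly discordant (run 2 near 100% for most drugs).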

Structure (SMILES) | percent growth inhibition
CCCCCCCCNC(C)C(O)c1ccc(SC(C)C)cc1 (stereo not given) [Suloctidil] | 28.5 ± 40%
CN(C(=O)CN(CCO)CC(=O)N(C)C(C)(C)Cc1ccccc1)C(C)(C)Cc1ccccc1 [Oxethazaine] | 52.4 ± 55%
CN[C@@H]1[C@@H](O[C@H]2O[C@H](CO)[C@@H](N)[C@H](O)[C@H]2O)OC2C[C@@H](N)[C@@H](O[C@H]3[C@H](O)[C@@H](O)[C@H](N)C[C@@H]3N)OC2[C@@H]1O (stereo not given in full) [Apramycin] | 12.1 ± 8.2%
CCN(CC)CCOC(=O)C1(C2CCCCC2)CCCCC1 [Dicyclomine hydrochloride] | 0.338 ± 2.5%
CCOC(=O)N1CCC(=C2c3ccc(Cl)cc3CCc3cccnc32)CC1 [Loratadine] | -2.61 ± 5.2%
Cc1onc(-c2c(F)cccc2Cl)c1C(=O)N[C@@H]1C(=O)N2[C@@H]1SC(C)(C)[C@@H]2C(=O)O [Flucloxacillin sodium] | 48.6 ± 56%
COc1ccccc1N1CCN(CC(O)COc2cccc3ccccc23)CC1 (stereo not given) [Naftopidil dihydrochloride] | 5.11 ± 12%
CCOC1O[C@H]([C@@H](COCc2ccccc2)OCc2ccccc2)[C@H](OCc2ccccc2)[C@H]1O (stereo not given in full) [Tribenoside] | -1.7 ± 6%
COC(=O)C1=C(C#N)NC(C)=C(C(=O)OC(C)C)C1c1cccc([N+](=O)[O-])c1 (stereo not given) [Nilvadipine] | -3.44 ± 3.3%
CSc1ccc2c(c1)N(CCC1CCCCN1C)c1ccccc1S2 (stereo not given) [Thioridazine hydrochloride] | 65.7 ± 40%
COc1cccc2c1C(=O)c1c(O)c3c(c(O)c1C2=O)C[C@@](O)(C(C)=O)C[C@@H]3O[C@H]1C[C@H](N)[C@H](O)[C@H](C)O1 [Daunorubicin hydrochloride] | 2.11 ± 0.29%
COc1ccc(-c2cc(=S)ss2)cc1 [Anethole-trithione] | 5.79 ± 5.3%
Nc1ccc(S(=O)(=O)c2ccc(N)cc2)cc1 [Dapsone] | 2.14 ± 9%
CC(C)(O)c1ccccc1CC[C@@H](SCC1(CC(=O)O)CC1)c1cccc(/C=C/c2ccc3ccc(Cl)cc3n2)c1 [Montelukast] | 39.5 ± 78%
Cc1cc2cc3c(C)cc(=O)oc3c(C)c2o1 [Trioxsalen] | -2.67 ± 2.3%
Fc1ccc(C(c2ccc(F)cc2)N2CCN(C/C=C/c3ccccc3)CC2)cc1 [Flunarizine dihydrochloride] | 37.1 ± 50%
O=C(Nc1ccc([N+](=O)[O-])cc1Cl)c1cc(Cl)ccc1O [Niclosamide] | 54.9 ± 64%
CCN(CC)Cc1cc(Nc2ccnc3cc(Cl)ccc23)ccc1O [Amodiaquin dihydrochloride dihydrate] | 53.4 ± 47%
Clc1ccc(COC(Cn2ccnc2)c2ccc(Cl)cc2Cl)cc1 (stereo not given) [Econazole nitrate] | 49.8 ± 58%
CC(C)/N=c1\cc2n(-c3ccc(Cl)cc3)c3ccccc3nc-2cc1Nc1ccc(Cl)cc1 [Clofazimine] | 2.95 ± 3.7%

Same assay, conditions: antibiotic (0.125x MIC): colistin; 20 µM

Structure (SMILES) | percent growth inhibition
CCCCCCCCNC(C)C(O)c1ccc(SC(C)C)cc1 (stereo not given) [Suloctidil] | 97.6 ± 3.3%
CN(C(=O)CN(CCO)CC(=O)N(C)C(C)(C)Cc1ccccc1)C(C)(C)Cc1ccccc1 [Oxethazaine] | 98.4 ± 1.9%
CN[C@@H]1[C@@H](O[C@H]2O[C@H](CO)[C@@H](N)[C@H](O)[C@H]2O)OC2C[C@@H](N)[C@@H](O[C@H]3[C@H](O)[C@@H](O)[C@H](N)C[C@@H]3N)OC2[C@@H]1O (stereo not given in full) [Apramycin] | 93.9 ± 6.6%
CCN(CC)CCOC(=O)C1(C2CCCCC2)CCCCC1 [Dicyclomine hydrochloride] | 51.4 ± 69%
CCOC(=O)N1CCC(=C2c3ccc(Cl)cc3CCc3cccnc32)CC1 [Loratadine] | 55.8 ± 63%
Cc1onc(-c2c(F)cccc2Cl)c1C(=O)N[C@@H]1C(=O)N2[C@@H]1SC(C)(C)[C@@H]2C(=O)O [Flucloxacillin sodium] | 50.1 ± 54%
COc1ccccc1N1CCN(CC(O)COc2cccc3ccccc23)CC1 (stereo not given) [Naftopidil dihydrochloride] | 48.4 ± 73%
CCOC1O[C@H]([C@@H](COCc2ccccc2)OCc2ccccc2)[C@H](OCc2ccccc2)[C@H]1O (stereo not given in full) [Tribenoside] | 44.4 ± 79%
COC(=O)C1=C(C#N)NC(C)=C(C(=O)OC(C)C)C1c1cccc([N+](=O)[O-])c1 (stereo not given) [Nilvadipine] | 52.1 ± 65%
CSc1ccc2c(c1)N(CCC1CCCCN1C)c1ccccc1S2 (stereo not given) [Thioridazine hydrochloride] | 55 ± 52%
COc1cccc2c1C(=O)c1c(O)c3c(c(O)c1C2=O)C[C@@](O)(C(C)=O)C[C@@H]3O[C@H]1C[C@H](N)[C@H](O)[C@H](C)O1 [Daunorubicin hydrochloride] | 91.8 ± 8.1%
COc1ccc(-c2cc(=S)ss2)cc1 [Anethole-trithione] | 53.1 ± 65%
Nc1ccc(S(=O)(=O)c2ccc(N)cc2)cc1 [Dapsone] | 44.7 ± 73%
CC(C)(O)c1ccccc1CC[C@@H](SCC1(CC(=O)O)CC1)c1cccc(/C=C/c2ccc3ccc(Cl)cc3n2)c1 [Montelukast] | 2.14 ± 28%
Cc1cc2cc3c(C)cc(=O)oc3c(C)c2o1 [Trioxsalen] | 55.9 ± 62%
Fc1ccc(C(c2ccc(F)cc2)N2CCN(C/C=C/c3ccccc3)CC2)cc1 [Flunarizine dihydrochloride] | 44.1 ± 62%
O=C(Nc1ccc([N+](=O)[O-])cc1Cl)c1cc(Cl)ccc1O [Niclosamide] | 69.1 ± 44%
CCN(CC)Cc1cc(Nc2ccnc3cc(Cl)ccc23)ccc1O [Amodiaquin dihydrochloride dihydrate] | 62.8 ± 43%
Clc1ccc(COC(Cn2ccnc2)c2ccc(Cl)cc2Cl)cc1 (stereo not given) [Econazole nitrate] | 52 ± 56%
CC(C)/N=c1\cc2n(-c3ccc(Cl)cc3)c3ccccc3nc-2cc1Nc1ccc(Cl)cc1 [Clofazimine] | 48.4 ± 71%
